According to the supplement of paper PMC10849652:
The list shows a part of the results.

The chains behind the UniProt entries cited, without tags or fusion partners. Where a name states a change or a piece, a line headed by the entry shows the natural chain unless it says otherwise.
UniProt Q9NXW9: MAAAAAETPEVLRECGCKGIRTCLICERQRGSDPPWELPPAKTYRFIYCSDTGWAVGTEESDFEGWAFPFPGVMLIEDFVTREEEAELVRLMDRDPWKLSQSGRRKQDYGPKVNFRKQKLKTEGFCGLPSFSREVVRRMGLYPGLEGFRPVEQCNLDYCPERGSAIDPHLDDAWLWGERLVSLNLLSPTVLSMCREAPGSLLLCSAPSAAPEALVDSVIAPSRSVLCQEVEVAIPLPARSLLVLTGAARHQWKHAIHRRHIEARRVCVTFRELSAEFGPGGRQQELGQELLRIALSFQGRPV
UniProt P55196: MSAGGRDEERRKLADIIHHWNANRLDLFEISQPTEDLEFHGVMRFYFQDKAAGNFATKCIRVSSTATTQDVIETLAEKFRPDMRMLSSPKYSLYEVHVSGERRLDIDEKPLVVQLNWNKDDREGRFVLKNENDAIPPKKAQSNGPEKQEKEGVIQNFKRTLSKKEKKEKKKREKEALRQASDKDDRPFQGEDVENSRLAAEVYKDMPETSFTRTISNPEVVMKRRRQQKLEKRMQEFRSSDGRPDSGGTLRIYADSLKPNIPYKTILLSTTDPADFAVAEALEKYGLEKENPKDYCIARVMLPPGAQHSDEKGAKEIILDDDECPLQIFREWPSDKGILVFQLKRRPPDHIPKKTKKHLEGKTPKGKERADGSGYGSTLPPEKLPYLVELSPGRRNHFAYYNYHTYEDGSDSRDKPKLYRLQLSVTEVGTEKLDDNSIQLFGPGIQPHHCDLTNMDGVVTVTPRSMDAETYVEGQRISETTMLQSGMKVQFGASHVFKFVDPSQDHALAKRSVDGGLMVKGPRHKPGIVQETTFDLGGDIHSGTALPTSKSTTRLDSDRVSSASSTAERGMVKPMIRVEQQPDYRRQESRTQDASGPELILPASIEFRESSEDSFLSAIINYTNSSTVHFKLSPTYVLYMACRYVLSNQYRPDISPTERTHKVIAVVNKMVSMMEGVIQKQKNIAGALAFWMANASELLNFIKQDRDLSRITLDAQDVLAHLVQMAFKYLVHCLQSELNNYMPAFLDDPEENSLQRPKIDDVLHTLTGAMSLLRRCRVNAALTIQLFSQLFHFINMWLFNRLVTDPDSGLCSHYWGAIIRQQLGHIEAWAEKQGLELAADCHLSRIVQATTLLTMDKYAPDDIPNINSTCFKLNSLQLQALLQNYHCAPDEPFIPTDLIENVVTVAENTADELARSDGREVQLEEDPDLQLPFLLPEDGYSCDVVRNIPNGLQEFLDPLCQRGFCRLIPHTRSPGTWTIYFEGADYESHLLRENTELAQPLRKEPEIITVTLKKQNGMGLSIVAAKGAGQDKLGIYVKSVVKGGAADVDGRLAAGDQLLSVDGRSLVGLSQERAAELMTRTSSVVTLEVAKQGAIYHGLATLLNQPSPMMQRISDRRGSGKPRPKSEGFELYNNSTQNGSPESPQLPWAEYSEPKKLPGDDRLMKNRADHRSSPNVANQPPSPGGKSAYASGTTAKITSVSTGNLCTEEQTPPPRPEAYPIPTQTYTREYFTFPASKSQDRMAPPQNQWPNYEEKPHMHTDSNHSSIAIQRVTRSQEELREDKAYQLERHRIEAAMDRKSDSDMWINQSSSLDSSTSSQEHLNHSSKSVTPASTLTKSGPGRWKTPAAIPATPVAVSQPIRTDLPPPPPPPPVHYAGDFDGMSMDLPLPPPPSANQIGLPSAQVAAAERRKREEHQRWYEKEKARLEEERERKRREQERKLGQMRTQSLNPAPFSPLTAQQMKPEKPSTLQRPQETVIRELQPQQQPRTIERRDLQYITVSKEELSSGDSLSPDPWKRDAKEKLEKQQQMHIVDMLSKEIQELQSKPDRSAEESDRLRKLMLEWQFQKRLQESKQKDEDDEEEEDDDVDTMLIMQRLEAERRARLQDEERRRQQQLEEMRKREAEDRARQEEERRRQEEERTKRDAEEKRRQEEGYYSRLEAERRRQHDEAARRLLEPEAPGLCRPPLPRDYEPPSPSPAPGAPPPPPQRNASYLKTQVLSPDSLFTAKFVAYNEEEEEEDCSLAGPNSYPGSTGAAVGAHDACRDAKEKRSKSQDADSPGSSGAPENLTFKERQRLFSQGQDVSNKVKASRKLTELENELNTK
UniProt O95433, whole entry, looked up: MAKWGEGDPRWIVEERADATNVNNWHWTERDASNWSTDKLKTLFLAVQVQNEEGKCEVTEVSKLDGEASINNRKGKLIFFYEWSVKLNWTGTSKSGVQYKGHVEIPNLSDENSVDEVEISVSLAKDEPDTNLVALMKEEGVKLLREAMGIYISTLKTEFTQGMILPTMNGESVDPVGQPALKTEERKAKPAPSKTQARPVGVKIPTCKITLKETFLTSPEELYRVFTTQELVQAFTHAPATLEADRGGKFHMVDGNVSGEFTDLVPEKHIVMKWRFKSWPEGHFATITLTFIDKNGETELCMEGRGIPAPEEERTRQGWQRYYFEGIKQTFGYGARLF
UniProt P05091: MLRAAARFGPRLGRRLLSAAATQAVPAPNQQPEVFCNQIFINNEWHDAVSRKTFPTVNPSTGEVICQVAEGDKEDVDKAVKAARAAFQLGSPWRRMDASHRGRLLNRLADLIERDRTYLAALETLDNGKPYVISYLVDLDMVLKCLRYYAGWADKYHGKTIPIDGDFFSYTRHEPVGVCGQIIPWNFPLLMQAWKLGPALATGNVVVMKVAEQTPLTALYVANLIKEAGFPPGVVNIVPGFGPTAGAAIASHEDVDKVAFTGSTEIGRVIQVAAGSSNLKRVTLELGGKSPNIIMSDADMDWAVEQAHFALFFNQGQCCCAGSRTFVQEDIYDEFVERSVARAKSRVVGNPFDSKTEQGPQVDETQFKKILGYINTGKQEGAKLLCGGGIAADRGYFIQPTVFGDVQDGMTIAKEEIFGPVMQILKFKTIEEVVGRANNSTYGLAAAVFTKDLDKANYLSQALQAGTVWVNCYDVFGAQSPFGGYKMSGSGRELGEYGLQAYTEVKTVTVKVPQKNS
UniProt Q9NRZ7: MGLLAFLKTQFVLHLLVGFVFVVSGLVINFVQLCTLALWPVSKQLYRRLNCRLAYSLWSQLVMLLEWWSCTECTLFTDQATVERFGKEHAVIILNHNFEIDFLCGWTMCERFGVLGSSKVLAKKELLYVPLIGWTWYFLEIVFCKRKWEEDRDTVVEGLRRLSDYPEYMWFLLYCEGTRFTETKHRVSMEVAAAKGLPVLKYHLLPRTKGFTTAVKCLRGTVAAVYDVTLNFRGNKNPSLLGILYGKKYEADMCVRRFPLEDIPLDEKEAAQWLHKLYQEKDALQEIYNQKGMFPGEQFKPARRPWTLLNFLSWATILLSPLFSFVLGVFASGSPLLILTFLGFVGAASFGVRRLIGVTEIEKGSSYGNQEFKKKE
UniProt Q9BRR6: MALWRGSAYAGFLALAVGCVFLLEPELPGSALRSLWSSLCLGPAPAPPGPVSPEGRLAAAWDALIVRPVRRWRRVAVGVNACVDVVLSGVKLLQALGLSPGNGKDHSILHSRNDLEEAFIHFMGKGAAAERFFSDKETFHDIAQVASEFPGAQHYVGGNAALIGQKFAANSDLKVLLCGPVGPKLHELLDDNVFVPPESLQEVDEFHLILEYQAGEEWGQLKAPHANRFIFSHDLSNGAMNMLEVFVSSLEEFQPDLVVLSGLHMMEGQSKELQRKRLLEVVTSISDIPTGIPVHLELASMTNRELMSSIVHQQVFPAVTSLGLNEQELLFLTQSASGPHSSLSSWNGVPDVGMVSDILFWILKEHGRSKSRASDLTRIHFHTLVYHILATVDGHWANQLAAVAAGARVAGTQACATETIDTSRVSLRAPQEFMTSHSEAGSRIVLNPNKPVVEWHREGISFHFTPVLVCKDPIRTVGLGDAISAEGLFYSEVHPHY
UniProt Q8WYP5: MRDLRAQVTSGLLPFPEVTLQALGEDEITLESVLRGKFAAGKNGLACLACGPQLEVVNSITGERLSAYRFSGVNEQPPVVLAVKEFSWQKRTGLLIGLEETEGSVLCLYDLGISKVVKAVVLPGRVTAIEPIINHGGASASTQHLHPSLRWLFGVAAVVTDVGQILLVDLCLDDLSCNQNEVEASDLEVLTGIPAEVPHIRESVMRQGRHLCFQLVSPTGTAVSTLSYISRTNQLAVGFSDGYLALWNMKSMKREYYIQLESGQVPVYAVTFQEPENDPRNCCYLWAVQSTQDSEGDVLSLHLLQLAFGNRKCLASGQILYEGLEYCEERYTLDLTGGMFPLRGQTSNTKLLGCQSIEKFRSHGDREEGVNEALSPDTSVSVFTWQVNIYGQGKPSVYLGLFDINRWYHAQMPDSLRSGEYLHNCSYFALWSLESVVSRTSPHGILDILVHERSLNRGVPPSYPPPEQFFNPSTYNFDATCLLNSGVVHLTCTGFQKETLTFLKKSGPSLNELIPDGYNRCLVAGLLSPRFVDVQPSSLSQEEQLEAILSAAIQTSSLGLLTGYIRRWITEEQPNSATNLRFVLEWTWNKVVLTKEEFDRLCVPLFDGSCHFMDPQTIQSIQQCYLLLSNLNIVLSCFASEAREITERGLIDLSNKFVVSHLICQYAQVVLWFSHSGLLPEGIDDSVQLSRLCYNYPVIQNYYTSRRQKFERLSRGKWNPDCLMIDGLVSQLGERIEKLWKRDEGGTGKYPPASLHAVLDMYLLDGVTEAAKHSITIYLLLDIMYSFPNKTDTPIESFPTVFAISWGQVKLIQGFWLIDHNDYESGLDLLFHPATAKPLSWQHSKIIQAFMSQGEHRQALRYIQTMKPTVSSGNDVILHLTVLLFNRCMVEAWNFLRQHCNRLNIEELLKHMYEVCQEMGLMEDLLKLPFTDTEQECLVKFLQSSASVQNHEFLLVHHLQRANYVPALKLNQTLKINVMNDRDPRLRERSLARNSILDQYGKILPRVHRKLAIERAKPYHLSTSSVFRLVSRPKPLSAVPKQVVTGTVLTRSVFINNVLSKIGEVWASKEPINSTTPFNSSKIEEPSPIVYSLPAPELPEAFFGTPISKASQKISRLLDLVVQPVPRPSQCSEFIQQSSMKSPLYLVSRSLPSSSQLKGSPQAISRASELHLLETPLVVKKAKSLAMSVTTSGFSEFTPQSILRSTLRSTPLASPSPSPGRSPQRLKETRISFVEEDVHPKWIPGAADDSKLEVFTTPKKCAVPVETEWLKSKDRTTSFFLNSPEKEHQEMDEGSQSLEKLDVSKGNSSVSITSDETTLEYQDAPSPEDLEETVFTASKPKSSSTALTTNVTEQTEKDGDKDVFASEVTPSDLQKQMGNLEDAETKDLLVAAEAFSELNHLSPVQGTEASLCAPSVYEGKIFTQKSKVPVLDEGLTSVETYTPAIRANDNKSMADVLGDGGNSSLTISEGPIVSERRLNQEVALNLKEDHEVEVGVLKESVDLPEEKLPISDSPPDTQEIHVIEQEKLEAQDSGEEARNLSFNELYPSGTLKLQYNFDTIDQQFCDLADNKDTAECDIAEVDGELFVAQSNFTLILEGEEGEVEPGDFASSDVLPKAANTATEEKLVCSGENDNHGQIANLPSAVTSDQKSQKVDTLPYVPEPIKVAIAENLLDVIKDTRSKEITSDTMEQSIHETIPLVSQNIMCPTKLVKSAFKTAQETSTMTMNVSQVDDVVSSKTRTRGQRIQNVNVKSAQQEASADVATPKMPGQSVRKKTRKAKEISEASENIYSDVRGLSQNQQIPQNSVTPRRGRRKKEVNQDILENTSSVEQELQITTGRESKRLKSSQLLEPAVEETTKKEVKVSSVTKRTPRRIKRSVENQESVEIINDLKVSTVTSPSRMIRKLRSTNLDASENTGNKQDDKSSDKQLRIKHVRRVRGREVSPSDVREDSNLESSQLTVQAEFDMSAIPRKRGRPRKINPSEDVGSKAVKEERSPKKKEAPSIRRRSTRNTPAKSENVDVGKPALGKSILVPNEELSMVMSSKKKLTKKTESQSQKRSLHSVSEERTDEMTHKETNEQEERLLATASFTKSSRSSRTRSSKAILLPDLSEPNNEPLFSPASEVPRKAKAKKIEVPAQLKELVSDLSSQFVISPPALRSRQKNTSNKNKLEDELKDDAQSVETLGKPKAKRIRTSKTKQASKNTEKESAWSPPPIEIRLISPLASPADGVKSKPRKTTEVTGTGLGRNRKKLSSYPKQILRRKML
UniProt Q13155: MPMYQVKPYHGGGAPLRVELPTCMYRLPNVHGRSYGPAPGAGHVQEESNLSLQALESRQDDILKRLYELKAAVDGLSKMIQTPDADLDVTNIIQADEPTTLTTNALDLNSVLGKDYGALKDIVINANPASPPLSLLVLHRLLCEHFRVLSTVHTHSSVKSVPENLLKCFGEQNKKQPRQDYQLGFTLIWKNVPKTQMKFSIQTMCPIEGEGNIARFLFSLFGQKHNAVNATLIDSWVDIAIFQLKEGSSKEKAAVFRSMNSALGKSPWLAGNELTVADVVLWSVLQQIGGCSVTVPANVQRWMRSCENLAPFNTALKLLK

What follows are targets tested with C#Cc1cccc(Nc2ncnc3cc(OCCOC)c(OCCOC)cc23)c1 [erlotinib] (assay: log2 fold change, soluble protein after heating vs DMSO (PISA); higher = thermal stabilisation; K562 cells, 10 uM, 30 min; active = over 0.2 and 3.5 SD of the protein, either way, in both replicates (recomputed)).
In short: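 Aliquots of K562 cells (2×10^6 cells/mL) treated with 10 μM compound for 30 min were heated for 3 min over 48°C-58°C. After pooling and extraction in PBS with 0.5% NP-40 at 4°C, soluble protein from a 21,000xg, 90 min spin was quantified by TMTpro 16plex LC-MS/MS with channel sums equalised. Thermal stability is expressed against control samples, from duplicates, as a log2 fold change.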

log2 fold change, inactive:
ALKBH4 (UniProt Q9NXW9) 0.067
AMD1 (UniProt P17707) 0.078
AFDN isoform 5 (UniProt P55196) -0.005
ALDH5A1 isoform 2 (UniProt P51649) 0.007
ADK (UniProt P55263) 0.293
AHCYL1 (UniProt O43865) 0.083
AHCY (UniProt P23526) -0.053
AGPS (UniProt O00116) 0.046
ALDH1A1 (UniProt P00352) 0.006
AKT2 (UniProt P31751) 0.014
AHSA1 (UniProt O95433) 0.007
ALDH2 (UniProt P05091) -0.009
AGPAT3 isoform 3 (UniProt Q9NRZ7) 0.009
AK2 isoform 2 (UniProt P54819) 0.019
ALKBH3 (UniProt Q96Q83) 0.011
ADPGK (UniProt Q9BRR6) 0.024
ALDH1B1 (UniProt P30837) 0
AIDA (UniProt Q96BJ3) 0.03
AHCTF1 isoform 2 (UniProt Q8WYP5) -0.003
ALG14 (UniProt Q96F25) 0.111
AK4 (UniProt P27144) 0.027
AIMP2 (UniProt Q13155) -0.087
ALG13 (UniProt Q9NP73) -0.038

Reprinted at random: two records from the list.
log2 fold change, inactive:
ADPGK (UniProt Q9BRR6) 0.024
AK4 (UniProt P27144) 0.027
